Measured values taken from publication PMC3715423.
No constants are given. Whether binding was seen depends on the method and setting. Binding seen in cells or lysates may run through a third protein. Some results given as binding are weak or reduced against the parent protein; the word gives no strength. Tags and fused reporters may be left off the sequences shown.

T1: SMC1 (cohesin subunit) (Drosophila (endogenous in ovaries)) (UniProt Q9VCD8)
T1 sequence: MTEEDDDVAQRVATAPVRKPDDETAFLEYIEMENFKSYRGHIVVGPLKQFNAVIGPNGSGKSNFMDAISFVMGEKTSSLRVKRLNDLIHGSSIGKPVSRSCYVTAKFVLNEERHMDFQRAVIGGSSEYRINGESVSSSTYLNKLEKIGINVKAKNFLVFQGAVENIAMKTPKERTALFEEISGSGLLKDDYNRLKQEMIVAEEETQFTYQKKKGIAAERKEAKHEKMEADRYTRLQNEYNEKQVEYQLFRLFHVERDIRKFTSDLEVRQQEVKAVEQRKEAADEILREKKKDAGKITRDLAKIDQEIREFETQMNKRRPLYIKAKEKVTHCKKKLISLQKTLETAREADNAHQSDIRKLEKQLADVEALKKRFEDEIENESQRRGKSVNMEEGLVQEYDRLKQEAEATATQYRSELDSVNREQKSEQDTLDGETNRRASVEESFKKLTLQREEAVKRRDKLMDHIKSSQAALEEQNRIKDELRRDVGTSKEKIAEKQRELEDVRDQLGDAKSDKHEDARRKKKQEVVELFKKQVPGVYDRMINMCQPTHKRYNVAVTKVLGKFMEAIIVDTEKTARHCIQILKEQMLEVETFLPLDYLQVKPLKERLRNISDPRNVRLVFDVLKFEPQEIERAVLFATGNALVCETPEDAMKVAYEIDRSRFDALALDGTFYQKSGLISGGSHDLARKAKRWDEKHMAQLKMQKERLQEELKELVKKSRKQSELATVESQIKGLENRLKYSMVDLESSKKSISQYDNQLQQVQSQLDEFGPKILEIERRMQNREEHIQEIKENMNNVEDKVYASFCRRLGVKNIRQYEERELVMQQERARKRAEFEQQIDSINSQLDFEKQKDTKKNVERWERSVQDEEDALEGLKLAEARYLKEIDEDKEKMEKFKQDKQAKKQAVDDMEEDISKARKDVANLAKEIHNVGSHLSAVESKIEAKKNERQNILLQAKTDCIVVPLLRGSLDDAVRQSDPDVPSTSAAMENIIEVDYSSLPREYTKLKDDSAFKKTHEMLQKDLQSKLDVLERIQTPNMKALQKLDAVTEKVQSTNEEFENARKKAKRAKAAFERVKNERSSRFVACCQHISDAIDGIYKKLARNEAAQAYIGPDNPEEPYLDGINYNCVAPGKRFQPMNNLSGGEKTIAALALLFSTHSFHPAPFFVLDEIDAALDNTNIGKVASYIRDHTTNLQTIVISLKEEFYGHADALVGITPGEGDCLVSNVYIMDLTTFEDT

T2: FH::SOLO (full-length SOLO with tandem 3XFLAG and 3XHA tags at its N-terminus) (Drosophila) (UniProt B6JUP5)
T2 sequence: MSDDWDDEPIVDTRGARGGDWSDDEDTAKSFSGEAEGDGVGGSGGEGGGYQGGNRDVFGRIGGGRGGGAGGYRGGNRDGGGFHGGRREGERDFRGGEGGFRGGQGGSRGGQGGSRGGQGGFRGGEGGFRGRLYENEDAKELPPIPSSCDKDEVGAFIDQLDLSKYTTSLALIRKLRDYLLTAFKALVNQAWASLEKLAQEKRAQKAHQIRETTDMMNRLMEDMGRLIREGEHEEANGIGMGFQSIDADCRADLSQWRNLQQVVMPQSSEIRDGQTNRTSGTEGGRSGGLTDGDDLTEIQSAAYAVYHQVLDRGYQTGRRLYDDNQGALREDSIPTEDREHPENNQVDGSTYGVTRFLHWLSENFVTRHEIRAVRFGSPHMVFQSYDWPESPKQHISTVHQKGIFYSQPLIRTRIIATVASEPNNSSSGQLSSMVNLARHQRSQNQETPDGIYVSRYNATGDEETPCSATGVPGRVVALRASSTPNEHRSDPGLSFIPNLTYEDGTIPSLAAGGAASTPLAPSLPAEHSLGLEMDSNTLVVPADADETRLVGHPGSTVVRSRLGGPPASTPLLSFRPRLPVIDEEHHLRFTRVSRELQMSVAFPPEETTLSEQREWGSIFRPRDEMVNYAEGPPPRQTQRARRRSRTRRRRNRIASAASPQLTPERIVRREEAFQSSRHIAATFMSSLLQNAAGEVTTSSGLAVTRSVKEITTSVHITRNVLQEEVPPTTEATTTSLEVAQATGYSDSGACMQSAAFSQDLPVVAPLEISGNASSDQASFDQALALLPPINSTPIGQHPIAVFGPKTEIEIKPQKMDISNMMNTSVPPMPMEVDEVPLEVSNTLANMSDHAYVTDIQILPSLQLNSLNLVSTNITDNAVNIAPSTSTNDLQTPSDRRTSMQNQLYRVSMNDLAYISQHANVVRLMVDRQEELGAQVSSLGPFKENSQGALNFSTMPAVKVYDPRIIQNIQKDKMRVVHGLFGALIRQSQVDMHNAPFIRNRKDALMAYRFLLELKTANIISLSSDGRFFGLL


Assays:
[1] = biological target: T1, SMC1 (cohesin subunit) (Drosophila (endogenous in ovaries)); assay: co-IP; anti-SMC1 rabbit antibody and protein A agarose beads on pre-cleared FH::SOLO ovary lysate (NP40 Cell Lysis Buffer), 4°C; blot with anti-FLAG; controls: rabbit serum, y w ovaries
[2] = biological target: T2, FH::SOLO (full-length SOLO with tandem 3XFLAG and 3XHA tags at its N-terminus) (Drosophila); assay: co-IP; anti-FLAG M2 antibody and protein G agarose beads on pre-cleared FH::SOLO ovary lysate (NP40 Cell Lysis Buffer), 4°C; blot with anti-SMC1; control: mouse serum

| binding [1] | binding [2] | Binder |
| --- | --- | --- |
| binds |  | FH::SOLO (full-length SOLO with tandem 3XFLAG and 3XHA tags at its N-terminus) (protein, UniProt B6JUP5 1-1031) MSDDWDDEPIVDTRGARGGDWSDDEDTAKSFSGEAEGDGVGGSGGEGGGYQGGNRDVFGRIGGGRGGGAGGYRGGNRDGGGFHGGRREGERDFRGGEGGFRGGQGGSRGGQGGSRGGQGGFRGGEGGFRGRLYENEDAKELPPIPSSCDKDEVGAFIDQLDLSKYTTSLALIRKLRDYLLTAFKALVNQAWASLEKLAQEKRAQKAHQIRETTDMMNRLMEDMGRLIREGEHEEANGIGMGFQSIDADCRADLSQWRNLQQVVMPQSSEIRDGQTNRTSGTEGGRSGGLTDGDDLTEIQSAAYAVYHQVLDRGYQTGRRLYDDNQGALREDSIPTEDREHPENNQVDGSTYGVTRFLHWLSENFVTRHEIRAVRFGSPHMVFQSYDWPESPKQHISTVHQKGIFYSQPLIRTRIIATVASEPNNSSSGQLSSMVNLARHQRSQNQETPDGIYVSRYNATGDEETPCSATGVPGRVVALRASSTPNEHRSDPGLSFIPNLTYEDGTIPSLAAGGAASTPLAPSLPAEHSLGLEMDSNTLVVPADADETRLVGHPGSTVVRSRLGGPPASTPLLSFRPRLPVIDEEHHLRFTRVSRELQMSVAFPPEETTLSEQREWGSIFRPRDEMVNYAEGPPPRQTQRARRRSRTRRRRNRIASAASPQLTPERIVRREEAFQSSRHIAATFMSSLLQNAAGEVTTSSGLAVTRSVKEITTSVHITRNVLQEEVPPTTEATTTSLEVAQATGYSDSGACMQSAAFSQDLPVVAPLEISGNASSDQASFDQALALLPPINSTPIGQHPIAVFGPKTEIEIKPQKMDISNMMNTSVPPMPMEVDEVPLEVSNTLANMSDHAYVTDIQILPSLQLNSLNLVSTNITDNAVNIAPSTSTNDLQTPSDRRTSMQNQLYRVSMNDLAYISQHANVVRLMVDRQEELGAQVSSLGPFKENSQGALNFSTMPAVKVYDPRIIQNIQKDKMRVVHGLFGALIRQSQVDMHNAPFIRNRKDALMAYRFLLELKTANIISLSSDGRFFGLL |
|  | binds | SMC1 (cohesin subunit) (protein, UniProt Q9VCD8 1-1238) MTEEDDDVAQRVATAPVRKPDDETAFLEYIEMENFKSYRGHIVVGPLKQFNAVIGPNGSGKSNFMDAISFVMGEKTSSLRVKRLNDLIHGSSIGKPVSRSCYVTAKFVLNEERHMDFQRAVIGGSSEYRINGESVSSSTYLNKLEKIGINVKAKNFLVFQGAVENIAMKTPKERTALFEEISGSGLLKDDYNRLKQEMIVAEEETQFTYQKKKGIAAERKEAKHEKMEADRYTRLQNEYNEKQVEYQLFRLFHVERDIRKFTSDLEVRQQEVKAVEQRKEAADEILREKKKDAGKITRDLAKIDQEIREFETQMNKRRPLYIKAKEKVTHCKKKLISLQKTLETAREADNAHQSDIRKLEKQLADVEALKKRFEDEIENESQRRGKSVNMEEGLVQEYDRLKQEAEATATQYRSELDSVNREQKSEQDTLDGETNRRASVEESFKKLTLQREEAVKRRDKLMDHIKSSQAALEEQNRIKDELRRDVGTSKEKIAEKQRELEDVRDQLGDAKSDKHEDARRKKKQEVVELFKKQVPGVYDRMINMCQPTHKRYNVAVTKVLGKFMEAIIVDTEKTARHCIQILKEQMLEVETFLPLDYLQVKPLKERLRNISDPRNVRLVFDVLKFEPQEIERAVLFATGNALVCETPEDAMKVAYEIDRSRFDALALDGTFYQKSGLISGGSHDLARKAKRWDEKHMAQLKMQKERLQEELKELVKKSRKQSELATVESQIKGLENRLKYSMVDLESSKKSISQYDNQLQQVQSQLDEFGPKILEIERRMQNREEHIQEIKENMNNVEDKVYASFCRRLGVKNIRQYEERELVMQQERARKRAEFEQQIDSINSQLDFEKQKDTKKNVERWERSVQDEEDALEGLKLAEARYLKEIDEDKEKMEKFKQDKQAKKQAVDDMEEDISKARKDVANLAKEIHNVGSHLSAVESKIEAKKNERQNILLQAKTDCIVVPLLRGSLDDAVRQSDPDVPSTSAAMENIIEVDYSSLPREYTKLKDDSAFKKTHEMLQKDLQSKLDVLERIQTPNMKALQKLDAVTEKVQSTNEEFENARKKAKRAKAAFERVKNERSSRFVACCQHISDAIDGIYKKLARNEAAQAYIGPDNPEEPYLDGINYNCVAPGKRFQPMNNLSGGEKTIAALALLFSTHSFHPAPFFVLDEIDAALDNTNIGKVASYIRDHTTNLQTIVISLKEEFYGHADALVGITPGEGDCLVSNVYIMDLTTFEDT |
